Data as given in patent publication US7049311B1, “Pyrrolbenzodiazepines” (Spirogen Limited, priority 1998, dated 2006).
Some of these results come from one statement about several compounds together.

Tests used:
[1] = system: human tumour cells cultivated in hollow fibres implanted in mice; test: NCI Hollow Fibre Assay; type: in vivo; conditions: subcutaneous fibres; 2 points per dose giving 50% or greater reduction in viable cell mass; listed as UP2001
Excerpt: The Biological testing Branch of the Developmental Therapeutics Program of the NCI has adopted a preliminary in vivo screening tool for assessing the potential anticancer activity of compounds identified by the large scale in vitro cell screen. For these assays, human tumour cells are cultivated in polyvinylidene (PVDF) hollow fibres, and a sample of each cell line is implanted into each of two physiologic compartments (intraperitoneal and subcutaneaous) in mice. Each test mouse received a total of 6 fibres (3 intraperitoneally and 3 subcutaneously) representing 3 distinct cancer cell lines. These mice are treated with potential antitumour compounds at each of 2 test doses by the intraperitoneal route using a QD×4 treatment schedule. Vehicle controls consist of 6 mice receiving the compound diluent only. […] To assess anticancer effects, the viable cell mass is determined for each of the cell lines using a formazyn dye (MTT) conversion assay. From this, the % T/C can be calculated using the average optical density of compound treated samples divided by the average optical; density of the vehicle controls. In addition, the net increase in cell mass can be determined for each sample, as a sample of fibre cultures are assessed for viable cell mass on the day of implantation into mice. Thus, the cytostatic and cytocidal capacities of the test compound can be assessed. […]

[2] = system: ovarian cell lines SKOV-3, A2780/A2780cisR and CH1/CH1cisR; test: Ovarian carcinoma cytotoxicity assay, whole panel; type: cell-based

C=C1C[C@H]2C=Nc3cc(OCCCOc4cc5c(cc4OC)C(=O)N4CC(=C)C[C@H]4C=N5)c(OC)cc3C(=O)N2C1 [UP2001 (80)]
SC score [1]: higher than 8

COc1ccc(C2=CN3C(=O)c4cc(OC)c(OC)cc4N=C[C@@H]3C2)cc1 [UP2092 (179), (11aS)-1,11a-dihydro-7,8-dimethoxy-2-(4-methoxyphenyl)-5H-pyrrolo[2,1-c][1,4]benzodiazepin-5-one]
times more potent than the natural product anthramycin [2]: up to 100 times

C=CC1=CN2C(=O)c3cc(OC)c(OC)cc3N=C[C@@H]2C1 [UP2089 (177), (11aS)-1,11a-dihydro-7,8-dimethoxy-2-ethenyl-5H-pyrrolo[2,1-c][1,4]benzodiazepin-5-one]
times more potent than the natural product anthramycin [2]: up to 100 times
